Measurements as given in patent US20190284272A1 (published 2019).
No constants are given. Whether binding was seen depends on the method and setting. Binding can be weak; no strength is given.

Columns and labels:
[1] = target: canine IL-31 protein (Canine_IL31) (canine); test: Biacore, IL-31 surface, single antibody concentration (FIG. 4)
[2] = target: wildtype feline IL-31 protein (Feline_IL31_wildtype) (feline); test: as above
[3] = target: canine IL-31 protein (Canine_IL31) (canine); test: SPR (Biacore), FIG. 2 Section A
[4] = target: wildtype feline IL-31 protein (Feline_IL31_wildtype) (feline); test: SPR (Biacore), FIG. 2 Section A
[5] = target: canine IL-31 protein (Canine_IL31) (canine); test: SPR (Biacore), FIG. 2 Sections A and C
[6] = target: wildtype feline IL-31 protein (Feline_IL31_wildtype) (feline); test: SPR (Biacore), FIG. 2 Sections A and C

Row | binding [1] | binding [2] | Binder | binding [3] | binding [4] | other results
1 | binds | binds | ZIL94 (antibody, V domains shown) VH: EVQLVDSGGDLVKPGGSLRLSCVASGFTFSTYFMSWVRQAPGRGLQWVALISSDGSGTYYADAVKGRFTISRDNAKNTLYLQMNSLRAEDTAMYYCAIFWRAFNDWGQGTLVTVSS VL: QTVVIQEPSLSVSPGGTVTLTCGLNSGSVSTSNYPGWYQQTRGRTPRTIIYDTGSRPSGVPNRFSGSISGNKAALTITGAQPEDEADYYCSLYTDSDILVFGGGTHLTVLR | – | – | –
2 | binds | binds | ZIL159 (antibody, V domains shown) VH: EVQLVESGGDLVKPAGSLRLSCVASGFTFSSYVMTWVRQAPGKGLQWVAGINSEGSRTAYADAVKGRFTISRDNAKNTLYLQIDSLRAEDTAIYYCATGDIVATGTSYWGQGTLVTVSS VL: SNVLTQPPSVSVSLGQTATISCSGETLNRFYTQWFQQKAGQAPVLVIYKDTERPSGIPDRFSGSSSGNIHTLTISGARAEDEAAYYCKSAVSIDVGVFGGGTHLTVFR | – | – | –
3 | – | – | 15H05 mouse: canine chimera (antibody) heavy: QVQLQQSAAELARPGASVKMSCKTSGYTFTSYTIHWIKQRPGQGLEWIGNINPTSGYTENNQRFKDKTTLTVDRSSNTAYLQLHSLTSEDSAVYFCARWGFKYDGEWSFDVWGAGTTVTVSSASTTAPSVFPLAPSCGSTSGSTVALACLVSGYFPEPVTVSWNSGSLTSGVHTFPSVLQSSGLYSLSSMVTVPSSRWPSETFTCNVAHPASKTKVDKPVPKRENGRVPRPPDCPKCPAPEMLGGPSVFIFPPKPKDTLLIARTPEVTCVVVDLDPEDPEVQISWFVDGKQMQTAKTQPREEQFNGTYRVVSVLPIGHQDWLKGKQFTCKVNNKALPSPIERTISKARGQAHQPSVYVLPPSREELSKNTVSLTCLIKDFFPPDIDVEWQSNGQQEPESKYRTTPPQLDEDGSYFLYSKLSVDKSRWQRGDTFICAVMHEALHNHYTQESLSHSPGK light: DIQMNQSPSSLSASLGDTITVTCRASQGISIWLSWYQQKPGNIPKVLINKASNLHIGVPPRFSGSGSGTHFTLTITSLQPEDIATYYCLQSQTYPLTFGGGTKLEINRNDAQPAVYLFQPSPDQLHTGSASVVCLLNSFYPKDINVKWKVDGVIQDTGIQESVTEQDKDSTYSLSSTLTMSSTEYLSHELYSCEITHKSLPSTLIKSFQRSEC | binds | binds | –
4 | – | – | Feline 15H05 VH1 mouse VL (antibody, V domains shown) VH: QVLLVQSGAEVRTPGASVKIFCKASGYSFTSYTIHWLRQAPAQGLEWMGNINPTSGYTENNQRFKDRLTLTADTSTNTAYMELSSLRSADTAMYYCARWGFKYDGEWSFDVWGAGTTVTVSS VL: DIQMNQSPSSLSASLGDTITVTCRASQGISIWLSWYQQKPGNIPKVLINKASNLHIGVPPRFSGSGSGTHFTLTITSLQPEDIATYYCLQSQTYPLTFGGGTKLEIN | – | – | binding [5]: binds; binding [6]: binds
5 | – | – | mouse: feline 15H05 chimera (antibody) heavy: QVQLQQSAAELARPGASVKMSCKTSGYTFTSYTIHWIKQRPGQGLEWIGNINPTSGYTENNQRFKDKTTLTVDRSSNTAYLQLHSLTSEDSAVYFCARWGFKYDGEWSFDVWGAGTTVTVSSASTTAPSVFPLAPSCGTTSGATVALACLVLGYFPEPVTVSWNSGALTSGVHTFPAVLQASGLYSLSSMVTVPSSRWLSDTFTCNVAHPPSNTKVDKTVRKTDHPPGPKPCDCPKCPPPEAAGAPSIFIFPPKPKDTLSISRTPEVTCLVVDLGPDDSDVQITWFVDNTQVYTAKTSPREEQFNSTYRVVSVLPILHQDWLKGKEFKCKVNSKSLPSPIERTISKAKGQPHEPQVYVLPPAQEELSRNKVSVTCLIKSFHPPDIAVEWEITGQPEPENNYRTTPPQLDSDGTYFVYSKLSVDRSHWQRGNTYTCSVSHEALHSHHTQKSLTQSPGK light: DIQMNQSPSSLSASLGDTITVTCRASQGISIWLSWYQQKPGNIPKVLINKASNLHIGVPPRFSGSGSGTHFTLTITSLQPEDIATYYCLQSQTYPLTFGGGTKLEINRSDAQPSVFLFQPSLDELHTGSASIVCILNDFYPKEVNVKWKVDGVVQNKGIQESTTEQNSKDSTYSLSSTLTMSSTEYQSHEKFSCEVTHKSLASTLVKSFQRSECQRE | binds | binds | –
